For the test, the target named is pGBKT7-N500ΔRED (Arabidopsis thaliana). The experiment in a line: two-hybrid; yeast two-hybrid, pGBKT7 bait and pGADT7 prey in S. cerevisiae strain Gold; growth on SD/-His/-Leu/-Trp/-Ade at 30°C for 3 days.

The values below come from publication PMC7413564, “Phase separation of Arabidopsis EMB1579 controls transcription, mRNA splicing, and development” (PLoS Biology, 2020).

No constants are given. Whether binding was seen depends on the method and setting. A result given as binding can be weak or reduced; the word gives no strength.

B1: pGADT7-MSI4 (protein, UniProt O22607 1-507)
chain: MESDEAAAVSPQATTPSGGTGASGPKKRGRKPKTKEDSQTPSSQQQSDVKMKESGKKTQQSPSVDEKYSQWKGLVPILYDWLANHNLVWPSLSCRWGPQLEQATYKNRQRLYLSEQTDGSVPNTLVIANCEVVKPRVAAAEHISQFNEEARSPFVKKYKTIIHPGEVNRIRELPQNSKIVATHTDSPDVLIWDVETQPNRHAVLGAANSRPDLILTGHQDNAEFALAMCPTEPFVLSGGKDKSVVLWSIQDHITTIGTDSKSSGSIIKQTGEGTDKNESPTVGPRGVYHGHEDTVEDVAFSPTSAQEFCSVGDDSCLILWDARTGTNPVTKVEKAHDADLHCVDWNPHDDNLILTGSADNTVRLFDRRKLTANGVGSPIYKFEGHKAAVLCVQWSPDKSSVFGSSAEDGLLNIWDYDRVSKKSDRAAKSPAGLFFQHAGHRDKVVDFHWNASDPWTIVSVSDDCETTGGGGTLQIWRMSDLIYRPEEEVVAELEKFKSHVMTCASKP
Consider B1, for which the binding result is recorded as “binds”.
